Measured values from article PMC3630842.
Where two headings read alike, the source gives them in different places. Results are given in words; binding and its absence hold for the method and conditions named. Binding seen in cells or lysates may run through a third protein. Some results given as binding are weak or reduced against the parent protein; the word gives no strength. Blank lines part the entries; values can stand above or below the molecule they belong to.

Amino acid sequences for entries named in this document (tags omitted). A change or cut given only in a name is not applied to a line headed by its entry. Chains listed by the source or under a name are the forms on record and can include a tag or linker. Residues count along the entry.
wild-type IRBP with a C-terminally fused FLAG or HA epitope (P10745, residues 18-1247): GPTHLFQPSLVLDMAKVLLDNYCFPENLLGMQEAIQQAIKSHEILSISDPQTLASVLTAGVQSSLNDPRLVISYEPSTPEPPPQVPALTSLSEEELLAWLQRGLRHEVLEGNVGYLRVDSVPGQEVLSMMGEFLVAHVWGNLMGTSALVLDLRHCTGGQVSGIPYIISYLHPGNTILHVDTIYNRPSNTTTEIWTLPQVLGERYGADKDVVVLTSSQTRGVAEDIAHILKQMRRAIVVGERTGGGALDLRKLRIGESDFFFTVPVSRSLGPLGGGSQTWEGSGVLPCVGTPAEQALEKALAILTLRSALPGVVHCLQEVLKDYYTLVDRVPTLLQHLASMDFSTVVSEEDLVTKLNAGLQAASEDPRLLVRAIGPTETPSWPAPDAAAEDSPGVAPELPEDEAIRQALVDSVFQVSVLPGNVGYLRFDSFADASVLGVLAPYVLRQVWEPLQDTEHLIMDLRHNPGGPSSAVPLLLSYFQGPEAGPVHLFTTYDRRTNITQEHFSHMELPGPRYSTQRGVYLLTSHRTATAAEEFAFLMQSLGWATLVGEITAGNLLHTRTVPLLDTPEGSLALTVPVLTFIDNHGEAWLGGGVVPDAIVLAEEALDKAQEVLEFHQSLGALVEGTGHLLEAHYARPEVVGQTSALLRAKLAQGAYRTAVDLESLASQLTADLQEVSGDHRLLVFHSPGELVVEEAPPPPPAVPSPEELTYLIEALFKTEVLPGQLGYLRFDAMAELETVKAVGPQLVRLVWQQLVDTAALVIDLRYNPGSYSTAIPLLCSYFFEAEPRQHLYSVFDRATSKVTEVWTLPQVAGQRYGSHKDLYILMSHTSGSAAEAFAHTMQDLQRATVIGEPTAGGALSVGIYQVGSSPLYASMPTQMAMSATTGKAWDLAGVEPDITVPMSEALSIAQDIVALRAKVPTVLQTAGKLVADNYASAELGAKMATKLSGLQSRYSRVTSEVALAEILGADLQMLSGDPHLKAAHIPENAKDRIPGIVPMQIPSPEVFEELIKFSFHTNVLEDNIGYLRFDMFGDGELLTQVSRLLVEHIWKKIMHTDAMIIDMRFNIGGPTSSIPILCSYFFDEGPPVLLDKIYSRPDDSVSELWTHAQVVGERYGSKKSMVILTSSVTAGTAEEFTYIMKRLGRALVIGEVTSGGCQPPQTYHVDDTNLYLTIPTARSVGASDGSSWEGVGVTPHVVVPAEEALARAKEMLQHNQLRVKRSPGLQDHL
D1080N interphotoreceptor retinoid-binding protein (D1080N IRBP) (P10745, form named): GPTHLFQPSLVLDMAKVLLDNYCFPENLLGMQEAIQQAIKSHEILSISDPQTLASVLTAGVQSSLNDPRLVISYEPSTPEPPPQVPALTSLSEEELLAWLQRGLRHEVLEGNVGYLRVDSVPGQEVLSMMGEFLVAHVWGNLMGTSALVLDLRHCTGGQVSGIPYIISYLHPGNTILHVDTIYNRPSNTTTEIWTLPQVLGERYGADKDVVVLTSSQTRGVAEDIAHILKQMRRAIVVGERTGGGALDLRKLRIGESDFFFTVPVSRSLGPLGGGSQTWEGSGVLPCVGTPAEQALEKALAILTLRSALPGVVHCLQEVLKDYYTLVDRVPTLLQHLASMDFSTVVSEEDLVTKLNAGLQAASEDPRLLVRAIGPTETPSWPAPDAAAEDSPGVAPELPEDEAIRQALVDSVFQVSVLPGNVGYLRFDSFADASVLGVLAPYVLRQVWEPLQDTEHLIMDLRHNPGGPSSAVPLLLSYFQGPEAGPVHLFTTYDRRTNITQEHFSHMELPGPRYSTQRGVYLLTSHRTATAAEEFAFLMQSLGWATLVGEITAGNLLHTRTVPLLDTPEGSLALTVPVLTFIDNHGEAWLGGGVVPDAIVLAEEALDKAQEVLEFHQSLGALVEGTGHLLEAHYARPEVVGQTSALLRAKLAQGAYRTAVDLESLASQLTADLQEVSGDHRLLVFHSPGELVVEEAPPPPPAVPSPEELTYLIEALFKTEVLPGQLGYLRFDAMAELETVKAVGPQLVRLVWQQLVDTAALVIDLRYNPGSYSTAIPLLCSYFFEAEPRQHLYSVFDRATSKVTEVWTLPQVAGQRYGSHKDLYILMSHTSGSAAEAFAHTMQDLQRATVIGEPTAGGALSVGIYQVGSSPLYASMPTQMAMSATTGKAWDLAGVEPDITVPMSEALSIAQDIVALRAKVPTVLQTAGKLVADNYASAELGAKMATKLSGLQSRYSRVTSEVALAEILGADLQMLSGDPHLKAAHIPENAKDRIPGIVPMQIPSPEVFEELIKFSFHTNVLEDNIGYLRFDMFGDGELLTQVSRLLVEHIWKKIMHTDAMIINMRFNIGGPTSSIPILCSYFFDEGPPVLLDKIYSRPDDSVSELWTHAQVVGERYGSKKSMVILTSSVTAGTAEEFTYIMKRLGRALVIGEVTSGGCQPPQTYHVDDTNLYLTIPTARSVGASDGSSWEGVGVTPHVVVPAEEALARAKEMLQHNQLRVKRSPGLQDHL
UniProt P11021, residues 19-654: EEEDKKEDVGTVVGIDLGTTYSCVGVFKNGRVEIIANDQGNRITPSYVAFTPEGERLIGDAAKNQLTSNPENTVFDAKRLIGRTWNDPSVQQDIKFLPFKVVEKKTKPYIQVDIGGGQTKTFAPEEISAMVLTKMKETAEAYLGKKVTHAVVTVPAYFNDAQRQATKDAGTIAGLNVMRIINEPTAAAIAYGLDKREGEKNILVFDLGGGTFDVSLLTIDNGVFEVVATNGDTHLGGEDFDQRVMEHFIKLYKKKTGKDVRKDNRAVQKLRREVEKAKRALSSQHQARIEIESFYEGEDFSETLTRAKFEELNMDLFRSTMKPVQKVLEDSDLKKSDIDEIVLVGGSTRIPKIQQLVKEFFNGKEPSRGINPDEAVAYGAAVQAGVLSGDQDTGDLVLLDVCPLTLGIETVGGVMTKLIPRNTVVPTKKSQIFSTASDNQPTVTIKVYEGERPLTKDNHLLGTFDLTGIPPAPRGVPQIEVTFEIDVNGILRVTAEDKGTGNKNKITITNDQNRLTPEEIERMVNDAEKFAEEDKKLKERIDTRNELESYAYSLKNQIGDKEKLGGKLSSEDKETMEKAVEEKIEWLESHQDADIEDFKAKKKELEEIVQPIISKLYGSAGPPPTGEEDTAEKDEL

Key:
[1] = molecular target: D1080N IRBP with a C-terminally fused FLAG or HA epitope (human) (UniProt P10745); experiment: co-IP; 293T-LC cells co-expressing WT and D1080N IRBPs tagged with FLAG or HA; immunoprecipitation with a FLAG antibody (anti-FLAG M2 affinity gel), precipitates probed with an HA antibody
[2] = molecular target: wild-type IRBP with a C-terminally fused FLAG or HA epitope (human) (UniProt P10745); experiment: as above
[3] = molecular target: D1080N interphotoreceptor retinoid-binding protein (D1080N IRBP) (human) (UniProt P10745); experiment: co-IP; 293T-LC cells expressing WT or D1080N IRBP; lysis in 50 mM Tris-HCl pH 7.4, 150 mM NaCl, 1 mM EDTA, 0.5% Nonidet P-40; immunoprecipitation with an affinity-purified IRBP antibody (Dynabeads kit); precipitates probed with antibodies against PDI/PDIA2 or BiP
[4] = molecular target: D1080N interphotoreceptor retinoid-binding protein (D1080N IRBP) (human) (UniProt P10745); experiment: as above; remark: listed apart in the source

binding [1]: binds
binding [2]: binds
Molecule: D1080N IRBP with a C-terminally fused FLAG or HA epitope (from UniProt P10745 18-1247)

binding [3]: binds
Molecule: binding immunoglobulin protein (BiP) (from UniProt P11021 19-654)

binding [2]: binds
Molecule: wild-type IRBP with a C-terminally fused FLAG or HA epitope (from UniProt P10745 18-1247)

binding [4]: binds
B1: protein disulfide isomerase A2 (PDIA2) (protein, UniProt D3Z6P0 21-527)
chain: QGEEPGGPSEVLPEEPTGEEVPKEDGILVLNHRTLSLALQEHSALMVEFYAPWCGHCKELAPEYSKAAALLAAESAVVTLAKVDGPAEPELTKEFEVVGYPTLKFFQNGNRTNPEEYAGPKTAEGIAEWLRRRVGPSATHLEDEEGVQALMAKWDMVVIGFFQDLQGKDMATFLALAKDALDMTFGFTDQPQLFEKFGLTKDTVVLFKKFDEGRADFPVDKETGLDLGDLSRFLVIHSMHLVTEFNSQTSPKIFAAKILNHLLLFVNQTLAQHRELLTDFREAAPPFRGQVLFVMVDVAADNSHVLNYFGLKAEEAPTLRLINVETTKKYAPTGVIAITAASVAAFCQAVLHGEIKHYLLSQEIPPDWDQGPVKTLVSKNFEQVAFDETKNVFVKFYAPWCSHCKEMAPAWEALAEKYKDREDIVIAELDATANELEAFSVLGYPTLKFFPAGPDRKVIDYKSTRDLETFSKFLDSGGHLPKEEPKEPAASAPEAQANSTLGPKEEL
